# Some of the results follow.
# Sequences of proteins named here, by UniProt entry; tags and fusion partners are left off. A change or cut given only in a name is not applied to a line headed by its entry.
# UniProt P32456: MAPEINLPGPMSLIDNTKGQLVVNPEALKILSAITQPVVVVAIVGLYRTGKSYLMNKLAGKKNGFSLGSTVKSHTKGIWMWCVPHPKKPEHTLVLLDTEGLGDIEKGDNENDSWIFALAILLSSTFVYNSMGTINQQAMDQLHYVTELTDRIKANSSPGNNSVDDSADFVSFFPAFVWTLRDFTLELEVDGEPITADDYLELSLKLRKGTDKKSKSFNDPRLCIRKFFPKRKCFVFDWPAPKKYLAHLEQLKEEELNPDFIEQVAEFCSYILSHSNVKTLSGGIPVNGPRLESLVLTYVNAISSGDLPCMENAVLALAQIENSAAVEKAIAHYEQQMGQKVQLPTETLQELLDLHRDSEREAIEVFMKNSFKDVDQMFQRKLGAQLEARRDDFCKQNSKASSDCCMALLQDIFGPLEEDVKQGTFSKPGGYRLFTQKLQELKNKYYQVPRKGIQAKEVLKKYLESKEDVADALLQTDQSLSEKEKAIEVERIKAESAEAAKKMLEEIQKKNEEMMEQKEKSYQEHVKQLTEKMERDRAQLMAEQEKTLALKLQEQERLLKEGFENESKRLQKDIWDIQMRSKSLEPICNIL
# UniProt P24522: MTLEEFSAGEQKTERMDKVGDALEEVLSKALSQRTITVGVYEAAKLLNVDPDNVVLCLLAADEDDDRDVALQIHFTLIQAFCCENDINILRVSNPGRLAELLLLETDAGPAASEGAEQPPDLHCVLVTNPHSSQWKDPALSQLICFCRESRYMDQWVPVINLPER
# UniProt Q8WWW8: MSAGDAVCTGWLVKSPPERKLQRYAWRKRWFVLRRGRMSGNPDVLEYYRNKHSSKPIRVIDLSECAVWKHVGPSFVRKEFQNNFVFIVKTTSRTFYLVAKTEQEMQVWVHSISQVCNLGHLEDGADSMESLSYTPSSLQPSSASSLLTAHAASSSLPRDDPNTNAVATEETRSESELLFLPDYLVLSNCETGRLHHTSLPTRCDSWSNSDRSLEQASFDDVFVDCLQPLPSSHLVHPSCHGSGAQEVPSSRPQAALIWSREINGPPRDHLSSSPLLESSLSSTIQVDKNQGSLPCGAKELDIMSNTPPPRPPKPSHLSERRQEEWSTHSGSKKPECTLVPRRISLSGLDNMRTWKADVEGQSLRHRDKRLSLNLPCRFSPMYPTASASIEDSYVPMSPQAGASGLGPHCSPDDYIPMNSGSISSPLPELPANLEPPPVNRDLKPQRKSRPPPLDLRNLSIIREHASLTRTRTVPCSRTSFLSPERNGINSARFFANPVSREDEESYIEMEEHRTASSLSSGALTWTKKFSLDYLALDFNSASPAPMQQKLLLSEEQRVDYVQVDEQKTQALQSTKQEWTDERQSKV
# UniProt Q8IWF2: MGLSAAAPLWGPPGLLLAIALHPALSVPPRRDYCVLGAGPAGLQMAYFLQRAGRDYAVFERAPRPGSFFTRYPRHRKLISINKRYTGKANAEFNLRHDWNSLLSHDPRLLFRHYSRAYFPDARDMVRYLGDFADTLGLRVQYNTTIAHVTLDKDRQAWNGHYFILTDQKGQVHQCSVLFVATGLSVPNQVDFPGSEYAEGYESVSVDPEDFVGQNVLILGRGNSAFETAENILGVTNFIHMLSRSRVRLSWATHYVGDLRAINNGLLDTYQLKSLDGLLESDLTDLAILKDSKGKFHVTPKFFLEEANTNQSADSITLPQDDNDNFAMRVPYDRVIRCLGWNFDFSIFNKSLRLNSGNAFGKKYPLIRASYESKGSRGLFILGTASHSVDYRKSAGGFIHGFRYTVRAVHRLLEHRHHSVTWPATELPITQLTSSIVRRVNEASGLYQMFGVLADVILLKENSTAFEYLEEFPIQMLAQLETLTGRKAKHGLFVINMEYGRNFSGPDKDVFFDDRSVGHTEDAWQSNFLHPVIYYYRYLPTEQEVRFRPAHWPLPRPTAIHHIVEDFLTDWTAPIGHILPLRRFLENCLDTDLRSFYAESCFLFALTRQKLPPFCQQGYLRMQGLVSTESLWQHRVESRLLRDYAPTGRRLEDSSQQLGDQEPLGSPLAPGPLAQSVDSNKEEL
# UniProt Q92837: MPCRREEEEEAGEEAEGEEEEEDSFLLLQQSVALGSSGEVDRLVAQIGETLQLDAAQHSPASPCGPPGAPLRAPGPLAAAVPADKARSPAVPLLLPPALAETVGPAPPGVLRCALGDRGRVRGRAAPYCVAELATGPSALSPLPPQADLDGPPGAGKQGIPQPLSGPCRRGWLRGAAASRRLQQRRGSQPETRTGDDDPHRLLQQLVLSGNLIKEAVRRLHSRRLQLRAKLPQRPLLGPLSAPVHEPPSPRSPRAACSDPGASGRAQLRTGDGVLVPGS
# FOXO3B, A0A2Z4LIS9, UniProt A0A2Z4LIS9, whole entry, looked up: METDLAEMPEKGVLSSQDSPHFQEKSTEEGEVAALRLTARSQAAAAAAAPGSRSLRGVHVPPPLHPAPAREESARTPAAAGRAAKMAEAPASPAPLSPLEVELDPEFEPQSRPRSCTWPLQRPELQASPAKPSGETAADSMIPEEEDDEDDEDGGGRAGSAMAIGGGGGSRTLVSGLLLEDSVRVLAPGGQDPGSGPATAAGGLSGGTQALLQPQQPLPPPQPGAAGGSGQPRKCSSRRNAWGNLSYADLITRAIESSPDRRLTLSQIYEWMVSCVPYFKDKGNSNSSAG
# UniProt Q17RS7: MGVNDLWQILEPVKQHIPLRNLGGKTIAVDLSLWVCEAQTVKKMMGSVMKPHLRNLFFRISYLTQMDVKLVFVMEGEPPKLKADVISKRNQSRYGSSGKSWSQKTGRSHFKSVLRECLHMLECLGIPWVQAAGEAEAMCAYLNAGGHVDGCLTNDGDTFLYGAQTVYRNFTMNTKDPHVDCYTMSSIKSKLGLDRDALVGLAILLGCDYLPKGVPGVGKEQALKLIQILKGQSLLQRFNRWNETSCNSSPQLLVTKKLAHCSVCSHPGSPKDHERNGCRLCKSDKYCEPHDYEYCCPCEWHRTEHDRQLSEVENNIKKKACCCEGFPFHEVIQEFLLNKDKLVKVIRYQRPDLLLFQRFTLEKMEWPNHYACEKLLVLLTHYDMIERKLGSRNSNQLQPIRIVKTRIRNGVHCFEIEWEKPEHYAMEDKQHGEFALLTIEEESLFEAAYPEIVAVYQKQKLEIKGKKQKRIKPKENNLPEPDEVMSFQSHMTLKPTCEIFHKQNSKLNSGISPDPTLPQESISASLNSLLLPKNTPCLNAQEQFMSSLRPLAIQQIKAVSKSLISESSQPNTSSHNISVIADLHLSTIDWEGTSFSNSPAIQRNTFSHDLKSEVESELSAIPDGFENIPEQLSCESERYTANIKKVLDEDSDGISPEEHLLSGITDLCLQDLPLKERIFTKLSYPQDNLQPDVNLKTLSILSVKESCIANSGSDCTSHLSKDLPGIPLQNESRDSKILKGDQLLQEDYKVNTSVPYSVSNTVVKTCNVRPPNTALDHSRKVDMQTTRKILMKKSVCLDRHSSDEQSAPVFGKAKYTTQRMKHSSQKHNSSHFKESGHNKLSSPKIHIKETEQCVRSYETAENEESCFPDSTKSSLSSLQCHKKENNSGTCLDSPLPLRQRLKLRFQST
# UniProt P27469: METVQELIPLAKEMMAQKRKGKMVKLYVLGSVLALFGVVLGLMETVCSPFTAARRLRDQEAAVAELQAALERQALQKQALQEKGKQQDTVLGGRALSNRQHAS
# UniProt Q8WTR4: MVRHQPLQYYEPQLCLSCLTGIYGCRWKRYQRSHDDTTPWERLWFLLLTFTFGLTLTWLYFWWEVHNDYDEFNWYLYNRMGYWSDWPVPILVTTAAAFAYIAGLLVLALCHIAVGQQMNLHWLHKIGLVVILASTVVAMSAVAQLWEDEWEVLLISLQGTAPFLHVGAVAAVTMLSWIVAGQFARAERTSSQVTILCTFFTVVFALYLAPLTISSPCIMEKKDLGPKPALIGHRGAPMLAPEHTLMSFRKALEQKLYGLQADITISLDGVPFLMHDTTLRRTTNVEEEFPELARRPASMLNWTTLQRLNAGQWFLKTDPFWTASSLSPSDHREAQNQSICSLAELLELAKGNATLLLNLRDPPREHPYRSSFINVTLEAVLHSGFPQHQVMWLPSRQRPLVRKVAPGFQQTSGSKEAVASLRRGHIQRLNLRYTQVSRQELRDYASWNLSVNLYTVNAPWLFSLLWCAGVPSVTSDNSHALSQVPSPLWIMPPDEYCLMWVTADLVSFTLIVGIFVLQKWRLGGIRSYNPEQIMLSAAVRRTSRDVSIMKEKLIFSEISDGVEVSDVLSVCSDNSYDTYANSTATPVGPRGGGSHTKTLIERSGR
# UniProt O43716: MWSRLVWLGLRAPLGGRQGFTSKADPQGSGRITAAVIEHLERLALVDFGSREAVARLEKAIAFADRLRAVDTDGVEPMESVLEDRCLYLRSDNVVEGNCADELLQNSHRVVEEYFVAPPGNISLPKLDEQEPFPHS
# UniProt Q68DX3: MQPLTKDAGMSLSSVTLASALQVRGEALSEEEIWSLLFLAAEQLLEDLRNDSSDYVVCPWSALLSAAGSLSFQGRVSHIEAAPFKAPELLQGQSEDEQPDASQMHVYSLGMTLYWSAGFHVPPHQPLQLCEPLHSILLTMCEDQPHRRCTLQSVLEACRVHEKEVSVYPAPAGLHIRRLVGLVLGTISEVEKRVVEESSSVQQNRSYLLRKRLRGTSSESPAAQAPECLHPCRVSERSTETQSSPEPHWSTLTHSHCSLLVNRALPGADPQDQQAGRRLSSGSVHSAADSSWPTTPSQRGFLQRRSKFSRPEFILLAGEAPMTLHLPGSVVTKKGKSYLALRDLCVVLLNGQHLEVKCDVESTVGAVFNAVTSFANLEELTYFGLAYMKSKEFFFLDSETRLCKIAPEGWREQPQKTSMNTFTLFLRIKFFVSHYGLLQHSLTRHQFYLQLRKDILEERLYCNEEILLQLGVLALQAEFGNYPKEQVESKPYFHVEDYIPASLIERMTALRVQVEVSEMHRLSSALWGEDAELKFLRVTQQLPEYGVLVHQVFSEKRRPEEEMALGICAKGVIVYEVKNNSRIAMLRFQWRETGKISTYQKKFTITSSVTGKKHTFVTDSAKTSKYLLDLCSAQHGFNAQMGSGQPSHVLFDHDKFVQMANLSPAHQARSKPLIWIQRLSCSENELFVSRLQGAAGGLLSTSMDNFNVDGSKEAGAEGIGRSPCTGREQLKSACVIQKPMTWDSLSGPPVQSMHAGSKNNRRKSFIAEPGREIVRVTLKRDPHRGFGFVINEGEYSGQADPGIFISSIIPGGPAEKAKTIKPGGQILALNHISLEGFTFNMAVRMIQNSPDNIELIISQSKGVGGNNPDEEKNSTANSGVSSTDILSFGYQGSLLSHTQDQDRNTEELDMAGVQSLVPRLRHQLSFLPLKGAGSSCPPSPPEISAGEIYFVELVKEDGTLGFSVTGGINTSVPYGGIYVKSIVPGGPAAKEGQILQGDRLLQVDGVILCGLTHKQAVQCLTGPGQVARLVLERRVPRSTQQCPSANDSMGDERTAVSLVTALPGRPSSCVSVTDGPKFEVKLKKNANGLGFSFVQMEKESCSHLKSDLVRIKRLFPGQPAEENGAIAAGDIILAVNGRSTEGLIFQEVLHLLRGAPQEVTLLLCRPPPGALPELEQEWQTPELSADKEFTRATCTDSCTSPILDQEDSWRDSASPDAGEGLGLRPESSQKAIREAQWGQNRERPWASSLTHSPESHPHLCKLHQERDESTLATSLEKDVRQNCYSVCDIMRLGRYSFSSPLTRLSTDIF
# UniProt Q9NXC2: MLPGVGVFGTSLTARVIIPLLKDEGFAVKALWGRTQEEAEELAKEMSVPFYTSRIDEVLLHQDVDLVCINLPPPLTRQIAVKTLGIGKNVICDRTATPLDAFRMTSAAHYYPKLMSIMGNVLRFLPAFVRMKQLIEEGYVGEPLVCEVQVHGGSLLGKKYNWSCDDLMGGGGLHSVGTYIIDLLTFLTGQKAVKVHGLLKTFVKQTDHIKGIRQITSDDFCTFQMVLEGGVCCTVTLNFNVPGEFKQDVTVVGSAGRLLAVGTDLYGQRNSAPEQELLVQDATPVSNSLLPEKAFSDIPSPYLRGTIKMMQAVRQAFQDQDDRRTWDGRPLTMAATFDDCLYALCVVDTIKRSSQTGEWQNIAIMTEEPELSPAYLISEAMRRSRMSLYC
# UniProt P22083, whole entry, looked up: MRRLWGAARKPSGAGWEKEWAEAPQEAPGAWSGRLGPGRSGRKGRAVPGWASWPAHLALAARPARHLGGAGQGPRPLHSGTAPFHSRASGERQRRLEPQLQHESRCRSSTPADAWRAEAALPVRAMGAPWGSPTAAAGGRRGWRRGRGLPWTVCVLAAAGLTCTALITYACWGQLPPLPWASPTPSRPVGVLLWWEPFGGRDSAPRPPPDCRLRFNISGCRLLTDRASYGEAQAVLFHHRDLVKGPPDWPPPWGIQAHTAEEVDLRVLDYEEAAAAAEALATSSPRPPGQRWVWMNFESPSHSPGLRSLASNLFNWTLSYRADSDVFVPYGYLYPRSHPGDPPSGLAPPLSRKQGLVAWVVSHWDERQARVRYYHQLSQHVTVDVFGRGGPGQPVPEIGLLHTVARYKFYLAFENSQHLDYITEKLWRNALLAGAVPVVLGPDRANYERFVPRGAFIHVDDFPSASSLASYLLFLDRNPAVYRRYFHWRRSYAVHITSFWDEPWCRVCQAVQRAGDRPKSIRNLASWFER
# Columns and labels:
# Experiment in all cases: log2 fold change, soluble protein after heating vs DMSO (PISA); higher = thermal stabilisation; K562 lysate, 10 uM; active = over 0.2 and 3.5 SD of the protein, either way, in both replicates (recomputed)
# [1] = compound: CC(=O)c1cnc2ccc(-c3cc(Cl)c(O)c(Cl)c3)nc2c1N[C@H]1CC[C@H](CN(C)C)CC1
# Outline: (§1)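 Values give the log-two fold change in thermal stability against solvent controls, from duplicates. Crude K562 extract at 1 mg/mL protein, made by dounce homogenisation in PBS pH 7.4 with 1 mM MgCl2, was treated with 10 μM compound for 30 min. After 3 min heating across 48°C-58°C, aliquots were pooled, adjusted to 0.5% NP-40 at 4°C and centrifuged at 21,000xg for 90 min. The supernatant was measured by TMTpro 16plex LC-MS/MS with channel sums equalised.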
# ralimetinib = compound: CC(C)(C)Cn1c(N)nc2ccc(-c3[nH]c(C(C)(C)C)nc3-c3ccc(F)cc3)nc21 [ralimetinib]
# Outline: as §1
# [2] = compound: CC(C)(O)CC(=O)NCCn1ccc2ncnc(Nc3ccc(Oc4cccc(C(F)(F)F)c4)c(Cl)c3)c21
# Outline: as §1
# [3] = compound: CC(C)C1=C2N=C(C=C(N2N=C1)NCC3=CC=CC=C3)NCCCCCCN
# Outline: as §1
# [4] = compound: CC1=C(C2=C(C=C1)C(=O)C3=CC=CC=C3N2CCCN)C
# Outline: as §1
# [5] = compound: CC1=C(C=C(C=C1)NC(=O)C2=CC(=CC=C2)C(C)(C)C#N)NC3=CC4=C(C=C3)N=CN(C4=O)C
# Outline: as §1
# [6] = compound: CC1=C(C=C(C=C1)NC(=O)C2=CC(=CC=C2)N(C)C)NC(=O)C3=CC=C(C=C3)O
# Outline: as §1
# [7] = compound: CC1=CC=C(C=C1)SC2=C3C=C(SC3=CN=C2)C(=O)N
# Outline: as §1
# [8] = compound: CCCS(=O)(=O)Nc1ccc(F)c(C(=O)c2c[nH]c3ncc(Cl)cc23)c1F
# Outline: as §1
# [9] = compound: CC[C@@H]1C(=O)N(C)c2cnc(Nc3ccc(C(=O)NC4CCN(C)CC4)cc3OC)nc2N1C1CCCC1
# Outline: as §1
# volasertib = compound: CC[C@@H]1C(=O)N(C)c2cnc(Nc3ccc(C(=O)N[C@H]4CC[C@H](N5CCN(CC6CC6)CC5)CC4)cc3OC)nc2N1C(C)C [volasertib]
# Outline: as §1
# [10] = compound: CCn1c(C(=O)N(C2CC2)C2CC2)cc2c3c(ncn3C)c(Nc3cc(C)n(C)n3)nc21
# Outline: as §1
# [11] = compound: CCn1cc(-c2ccnc3[nH]c(-c4cccc(CN(C)C)c4)cc23)c(-c2ccc(NC(=O)N(C)C)cc2)n1
# Outline: as §1
# [12] = compound: CN1CCC(CNc2ccc3ncc(-c4cccc(OC(F)(F)F)c4)n3n2)CC1
# Outline: as §1
# saracatinib = compound: CN1CCN(CCOc2cc(OC3CCOCC3)c3c(Nc4c(Cl)ccc5c4OCO5)ncnc3c2)CC1 [saracatinib]
# Outline: as §1
# sotrastaurin = compound: CN1CCN(c2nc(C3=C(c4c[nH]c5ccccc45)C(=O)NC3=O)c3ccccc3n2)CC1 [sotrastaurin]
# Outline: as §1
# [13] = compound: CC1=C(C(CC(=O)N1)C2=CC=C(C=C2)C(F)(F)F)C(=O)NC3=C(C=C4C(=C3)C=NN4)F
# Outline: as §1
# vemurafenib = compound: CCCS(=O)(=O)Nc1ccc(F)c(C(=O)c2c[nH]c3ncc(-c4ccc(Cl)cc4)cc23)c1F [vemurafenib]
# Outline: as §1
target,measurement,setting,value
GBP2 (UniProt P32456),log2 fold change,[1],inactive: 0.109
same,log2 fold change,ralimetinib,inactive: 0.015
same,log2 fold change,[2],inactive: -0.047
same,log2 fold change,[3],inactive: -0.092
same,log2 fold change,[4],inactive: 0.099
same,log2 fold change,[5],inactive: 0.073
same,log2 fold change,[6],inactive: -0.062
same,log2 fold change,[7],inactive: 0.102
same,log2 fold change,[8],inactive: 0.02
same,log2 fold change,[9],inactive: -0.007
same,log2 fold change,volasertib,inactive: -0.14
same,log2 fold change,[10],inactive: -0.065
same,log2 fold change,[11],inactive: -0.337
same,log2 fold change,[12],inactive: 0.239
same,log2 fold change,saracatinib,inactive: 0.121
same,log2 fold change,sotrastaurin,inactive: 0.077
GATB (UniProt O75879),log2 fold change,[1],inactive: -0.144
same,log2 fold change,ralimetinib,inactive: 0.031
same,log2 fold change,[2],inactive: -0.019
same,log2 fold change,[13],inactive: -0.105
same,log2 fold change,[4],inactive: 0.05
same,log2 fold change,[6],inactive: 0.116
same,log2 fold change,[7],inactive: -0.025
same,log2 fold change,vemurafenib,inactive: -0.228
same,log2 fold change,[8],inactive: 0.143
same,log2 fold change,volasertib,inactive: 0.008
same,log2 fold change,[10],inactive: -0.006
same,log2 fold change,[11],inactive: -0.023
same,log2 fold change,[12],inactive: -0.075
same,log2 fold change,saracatinib,inactive: -0.142
GC isoform 3 (UniProt P02774),log2 fold change,ralimetinib,inactive: 0.051
same,log2 fold change,[2],active: -0.559
same,log2 fold change,[4],inactive: -0.148
same,log2 fold change,[5],inactive: -0.087
same,log2 fold change,[6],inactive: -0.101
same,log2 fold change,vemurafenib,inactive: -0.008
same,log2 fold change,[9],inactive: 0.022
same,log2 fold change,[10],inactive: -0.27
same,log2 fold change,[11],inactive: 0.146
same,log2 fold change,[12],inactive: -0.12
same,log2 fold change,saracatinib,inactive: -0.02
same,log2 fold change,sotrastaurin,inactive: 0.043
GADD45A (UniProt P24522),log2 fold change,ralimetinib,inactive: -0.117
same,log2 fold change,[2],inactive: 0.129
same,log2 fold change,[13],inactive: -0.021
same,log2 fold change,[5],inactive: 0.049
same,log2 fold change,[6],inactive: -0.062
same,log2 fold change,[10],inactive: 0.208
same,log2 fold change,[11],inactive: -0.032
same,log2 fold change,[12],inactive: -0.073
same,log2 fold change,sotrastaurin,inactive: 0.058
GAB3 isoform 2 (UniProt Q8WWW8),log2 fold change,ralimetinib,inactive: 0.066
same,log2 fold change,[2],inactive: 0.268
same,log2 fold change,[4],inactive: -0.016
same,log2 fold change,[5],inactive: 0.021
same,log2 fold change,[6],inactive: 0.299
same,log2 fold change,[9],inactive: -0.204
same,log2 fold change,[10],inactive: -0.242
same,log2 fold change,saracatinib,inactive: -0.059
same,log2 fold change,sotrastaurin,inactive: 0.047
FOXRED2 (UniProt Q8IWF2),log2 fold change,ralimetinib,inactive: 0.114
same,log2 fold change,[2],inactive: 0.014
same,log2 fold change,[3],inactive: -0.174
same,log2 fold change,[13],inactive: 0.029
same,log2 fold change,[4],inactive: -0.049
same,log2 fold change,[5],inactive: -0.035
same,log2 fold change,[6],inactive: -0.011
same,log2 fold change,vemurafenib,inactive: -0.007
same,log2 fold change,[9],inactive: 0.176
same,log2 fold change,[10],inactive: -0.025
same,log2 fold change,saracatinib,inactive: 0.021
same,log2 fold change,sotrastaurin,inactive: -0.041
FRAT1 (UniProt Q92837),log2 fold change,[4],inactive: -0.121
same,log2 fold change,vemurafenib,inactive: -0.101
same,log2 fold change,[9],inactive: 0.111
same,log2 fold change,saracatinib,inactive: -0.033
FRAS1 isoform 2 (UniProt Q86XX4),log2 fold change,[4],inactive: -0.033
same,log2 fold change,[5],inactive: 0.264
same,log2 fold change,vemurafenib,inactive: 0.11
same,log2 fold change,saracatinib,inactive: -0.02
same,log2 fold change,sotrastaurin,inactive: -0.045
"FOXO3B, A0A2Z4LIS9",log2 fold change,[4],inactive: -0.079
same,log2 fold change,vemurafenib,inactive: 0.011
same,log2 fold change,saracatinib,inactive: 0.027
FUT1 (UniProt P19526),log2 fold change,[5],inactive: -0.114
same,log2 fold change,[11],inactive: -0.032
same,log2 fold change,[12],inactive: 0.093
same,log2 fold change,sotrastaurin,inactive: 0.03
GCA (UniProt P28676),log2 fold change,[1],inactive: -0.134
same,log2 fold change,[3],inactive: 0.191
same,log2 fold change,[13],inactive: 0.173
same,log2 fold change,[7],inactive: 0.123
same,log2 fold change,[8],inactive: 0.124
same,log2 fold change,volasertib,inactive: -0.048
same,log2 fold change,[11],inactive: -0.139
same,log2 fold change,[12],inactive: 0.168
GEN1 (UniProt Q17RS7),log2 fold change,ralimetinib,inactive: 0.011
same,log2 fold change,[2],inactive: -0.048
same,log2 fold change,[13],inactive: -0.007
same,log2 fold change,[4],inactive: -0.012
same,log2 fold change,[5],inactive: -0.002
same,log2 fold change,[6],inactive: 0.093
same,log2 fold change,vemurafenib,inactive: -0.143
same,log2 fold change,[9],inactive: 0.013
same,log2 fold change,[10],inactive: 0.055
same,log2 fold change,saracatinib,inactive: 0.035
same,log2 fold change,sotrastaurin,inactive: 0
G0S2 (UniProt P27469),log2 fold change,[3],inactive: -0.07
same,log2 fold change,[13],inactive: -0.073
same,log2 fold change,[5],inactive: 0.08
same,log2 fold change,[9],inactive: -0.199
same,log2 fold change,sotrastaurin,inactive: 0.066
FSIP2 (UniProt Q5CZC0),log2 fold change,[1],inactive: -0.035
same,log2 fold change,ralimetinib,inactive: -0.094
same,log2 fold change,[2],inactive: -0.104
same,log2 fold change,[3],inactive: 0.018
same,log2 fold change,[13],inactive: -0.048
same,log2 fold change,[4],inactive: -0.135
same,log2 fold change,[5],inactive: 0.104
same,log2 fold change,[6],inactive: 0.074
same,log2 fold change,[7],inactive: -0.209
same,log2 fold change,[8],inactive: -0.005
same,log2 fold change,volasertib,inactive: -0.011
same,log2 fold change,[10],inactive: -0.154
same,log2 fold change,[11],inactive: -0.442
same,log2 fold change,[12],inactive: 0.111
same,log2 fold change,saracatinib,inactive: 0.096
same,log2 fold change,sotrastaurin,inactive: 0.049
GDPD5 (UniProt Q8WTR4),log2 fold change,[5],inactive: 0.051
same,log2 fold change,vemurafenib,inactive: 0.252
same,log2 fold change,sotrastaurin,inactive: -0.05
GATC (UniProt O43716),log2 fold change,[1],inactive: 0.048
same,log2 fold change,ralimetinib,inactive: 0.037
same,log2 fold change,[2],inactive: -0.004
same,log2 fold change,[3],inactive: -0.045
same,log2 fold change,[13],inactive: -0.038
same,log2 fold change,[4],inactive: -0.025
same,log2 fold change,[5],inactive: -0.082
same,log2 fold change,[6],inactive: 0.002
same,log2 fold change,[7],inactive: 0.148
same,log2 fold change,vemurafenib,inactive: 0.086
same,log2 fold change,[8],inactive: -0.021
same,log2 fold change,[9],inactive: 0.027
same,log2 fold change,volasertib,inactive: -0.045
same,log2 fold change,[10],inactive: 0.027
same,log2 fold change,[11],inactive: 0.128
same,log2 fold change,[12],inactive: -0.129
same,log2 fold change,saracatinib,inactive: -0.045
same,log2 fold change,sotrastaurin,inactive: -0.012
FRMPD2 (UniProt Q68DX3),log2 fold change,[1],inactive: -0.099
same,log2 fold change,[3],inactive: -0.337
same,log2 fold change,[13],inactive: -0.008
same,log2 fold change,[7],inactive: 0.009
same,log2 fold change,vemurafenib,inactive: 0.03
same,log2 fold change,[8],inactive: -0.038
same,log2 fold change,[9],inactive: -0.091
same,log2 fold change,volasertib,inactive: 0.084
same,log2 fold change,[11],inactive: 0.087
same,log2 fold change,[12],inactive: -0.164
GFOD1 (UniProt Q9NXC2),log2 fold change,[1],inactive: -0.023
same,log2 fold change,ralimetinib,inactive: 0.26
same,log2 fold change,[2],inactive: -0.131
same,log2 fold change,[3],inactive: -0.118
same,log2 fold change,[6],inactive: -0.304
same,log2 fold change,[7],inactive: -0.188
same,log2 fold change,[8],inactive: 0.07
same,log2 fold change,volasertib,inactive: -0.015
same,log2 fold change,[10],inactive: 0.087
FTSJ1 isoform 2 (UniProt Q9UET6),log2 fold change,[1],inactive: 0.026
same,log2 fold change,[7],inactive: 0.001
same,log2 fold change,vemurafenib,inactive: -0.164
same,log2 fold change,[8],inactive: 0.021
same,log2 fold change,[9],inactive: -0.024
same,log2 fold change,volasertib,inactive: 0.013
same,log2 fold change,[11],inactive: -0.019
same,log2 fold change,[12],inactive: 0.047
FRYL isoform 2 (UniProt O94915),log2 fold change,[11],inactive: 0.191
same,log2 fold change,[12],inactive: -0.112
GANC (UniProt Q8TET4),log2 fold change,[1],inactive: -0.142
same,log2 fold change,ralimetinib,inactive: 0.054
same,log2 fold change,[2],inactive: -0.226
same,log2 fold change,[3],inactive: 0.072
same,log2 fold change,[4],inactive: -0.061
same,log2 fold change,[5],inactive: 0.008
same,log2 fold change,[6],inactive: 0
same,log2 fold change,[7],inactive: 0.125
same,log2 fold change,[8],inactive: -0.097
same,log2 fold change,[9],inactive: -0.016
same,log2 fold change,volasertib,inactive: -0.068
same,log2 fold change,[10],inactive: 0.021
same,log2 fold change,saracatinib,inactive: -0.089
same,log2 fold change,sotrastaurin,inactive: 0.037
FUT4 (UniProt P22083),log2 fold change,[13],inactive: -0.033
same,log2 fold change,[4],inactive: -0.038
same,log2 fold change,[5],inactive: -0.019
same,log2 fold change,[9],inactive: 0.03
same,log2 fold change,[11],inactive: -0.151
same,log2 fold change,[12],inactive: 0.162
same,log2 fold change,saracatinib,inactive: 0.064
same,log2 fold change,sotrastaurin,inactive: -0.035
FZD1 (UniProt Q9UP38),log2 fold change,ralimetinib,inactive: 0.001
same,log2 fold change,[2],inactive: -0.005
same,log2 fold change,[13],inactive: 0.045
same,log2 fold change,[5],inactive: 0.001
same,log2 fold change,[6],inactive: -0.096
same,log2 fold change,[10],inactive: 0.081
same,log2 fold change,[11],inactive: -0.025
same,log2 fold change,[12],inactive: 0.098
same,log2 fold change,sotrastaurin,inactive: -0.116
GALNT7 (UniProt H0YAH3),log2 fold change,[3],inactive: 0.159
same,log2 fold change,[13],inactive: -0.038
same,log2 fold change,vemurafenib,inactive: 0.076
same,log2 fold change,[9],inactive: -0.058
same,log2 fold change,[11],inactive: -0.016
same,log2 fold change,[12],inactive: -0.086
GATM (UniProt P50440),log2 fold change,[9],inactive: 0.351

# 4 entries from above in a different format:
target	measurement	setting	value
FOXRED2 (UniProt Q8IWF2)	log2 fold change	[5]	inactive: -0.035
GEN1 (UniProt Q17RS7)	log2 fold change	[13]	inactive: -0.007
same	log2 fold change	sotrastaurin	inactive: 0
FRMPD2 (UniProt Q68DX3)	log2 fold change	volasertib	inactive: 0.084

# 2 entries from above in another layout.
target	measurement	setting	value
FOXRED2 (UniProt Q8IWF2)	log2 fold change	[10]	inactive: -0.025
GEN1 (UniProt Q17RS7)	log2 fold change	[6]	inactive: 0.093

# 3 entries picked at random from those above, as already listed:
target,measurement,setting,value
FRMPD2 (UniProt Q68DX3),log2 fold change,[11],inactive: 0.087
FZD1 (UniProt Q9UP38),log2 fold change,[5],inactive: 0.001
FSIP2 (UniProt Q5CZC0),log2 fold change,[12],inactive: 0.111
